Seven sequences from PMC12368660 (ACS Omega, 2025) can be followed below.

Plain letter strings leave the end groups untold.

This data set can be described thus: peptide made by a vendor (Fmoc solid-phase peptide synthesis). The note with it: whole synthesis, 220 nm, TFA salts.
Consider RWRWPRWRW, for which the “final HPLC purity” value turned out to be 96.2%.

In the case of RWRWPRWRWPRWRW, the “final HPLC purity” value turned out to be 95.2%.

Regarding RWRWRWPRWRWRW, the “final HPLC purity” value stood at 96.7%.

In the case of RWRWRWRW, the “final HPLC purity” value is given as 98.4%.

Consider RWRWRWRWPRWRWRWRW, for which the “final HPLC purity” value was determined as 96.2%.

Regarding RWRWRWRWRWRW, the “final HPLC purity” value worked out at 96.9%.

As for RWRWRWRWRWRWRWRW, the “final HPLC purity” value was 95.8%.
